Assay results as given in paper PMC7432317, “Structural Analysis of the SANT/Myb Domain of FLASH and YARP Proteins and Their Complex with the C-Terminal Fragment of NPAT by NMR Spectroscopy and Computer Simulations” (International Journal of Molecular Sciences, 2020).
No constants are given. Whether binding was seen depends on the method and setting. For some assays here: Binding seen in cells or lysates may run through a third protein. Some binding calls cover weakened binding; strength is not graded here.

The chains behind the UniProt entries cited, without tags or fusion partners. Residues count along the entry.
UniProt Q9UKL3, residues 1880-1982: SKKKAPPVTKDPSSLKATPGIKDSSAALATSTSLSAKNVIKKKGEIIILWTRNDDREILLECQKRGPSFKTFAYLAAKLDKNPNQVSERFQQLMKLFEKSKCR

T1: C-terminal fragment of Yin Yang 1-Associated Protein-Related Protein (YARP), residues 2149-2209 (human) (UniProt Q3T8J9)
T1 sequence: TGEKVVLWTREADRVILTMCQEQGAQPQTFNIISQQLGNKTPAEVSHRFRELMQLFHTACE


Columns and labels:
[1] = target: FLASH-GST fusion protein, the last 103 residues of FLASH (amino acids 1880-1982) (human) (UniProt Q9UKL3); assay: pull-down; GST fusions FLASH 1880-1982 or YARP 2117-2213 incubated with 35S-labelled in vitro translated NPAT (last 131 amino acids), complexes purified on glutathione beads, SDS-PAGE and radiography; 100 mM KCl; only the target purified
[2] = target: T1, C-terminal fragment of Yin Yang 1-Associated Protein-Related Protein (YARP), residues 2149-2209 (human); assay: NMR titration; 1H-15N HSQC of 15N-labelled YARP fragment (200 uM) with step-wise addition of the NPAT peptide (100 uM, two fold molar excess of YARP analysed; equimolar mixtures precipitated); 25 mM TRIS-HCl, 250 mM KCl, pH 6.2, 50 mM Arg+Glu, 40 mM TCEP, 298 K; both purified

Binder	binding [1]	binding [2]
NPAT, the last 131 amino acids, L1421K (domain or fragment, UniProt Q14207 1297-1427, 35S label) EDSSTSKVMVPPVTPDLPACSPASETGSENSVNMAAHTLMILSRAAISRTTSATPLKDNTQQFRASSRSTTKKRKIEELDERERNSRPSSKNLTNSSIPMKKKKIKKKKLPSSFPAGMDVDKFLKSLHYDE	binds	
NPAT, the last 131 amino acids, D1426N/E1427Q (domain or fragment, UniProt Q14207 1297-1427, 35S label) EDSSTSKVMVPPVTPDLPACSPASETGSENSVNMAAHTLMILSRAAISRTTSATPLKDNTQQFRASSRSTTKKRKIEELDERERNSRPSSKNLTNSSIPMKKKKIKKKKLPSSFPAGMDVDKFLLSLHYNQ	binds	
KKKKIKKKKLPSSFPAGMDVDKFLLSLHYDE (Free N-terminus, carboxyl at C-terminus; also called C-terminal NPAT peptide; source: synthetic peptide (Fmoc solid phase synthesis, RP-HPLC purified)) [NPAT peptide, the last 31 residues of NPAT (1397-1427)]		binds
NPAT, the last 131 amino acids, wild type (domain or fragment, UniProt Q14207 1297-1427, 35S label) EDSSTSKVMVPPVTPDLPACSPASETGSENSVNMAAHTLMILSRAAISRTTSATPLKDNTQQFRASSRSTTKKRKIEELDERERNSRPSSKNLTNSSIPMKKKKIKKKKLPSSFPAGMDVDKFLLSLHYDE	binds	
NPAT, the last 131 amino acids, L1420K (domain or fragment, UniProt Q14207 1297-1427, 35S label) EDSSTSKVMVPPVTPDLPACSPASETGSENSVNMAAHTLMILSRAAISRTTSATPLKDNTQQFRASSRSTTKKRKIEELDERERNSRPSSKNLTNSSIPMKKKKIKKKKLPSSFPAGMDVDKFKLSLHYDE	binds weakly	
